{"source": "paper PMC8598065", "key": {"[1]": {"target": "T1, GADD45G overexpressed from Ad-GADD45G in HRE cells (human) (UniProt O95257)", "T1 sequence": "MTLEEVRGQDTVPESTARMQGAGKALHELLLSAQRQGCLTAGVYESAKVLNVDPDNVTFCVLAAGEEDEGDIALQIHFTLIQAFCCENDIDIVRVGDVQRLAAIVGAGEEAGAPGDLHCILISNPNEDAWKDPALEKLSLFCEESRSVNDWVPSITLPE", "assay": "co-IP; lysates of HRE cells co-infected with Ad-GADD45G and Ad-HA-MAGEH1 (MOI 250), with or without 25 ug/ml CsA; IP with anti-GADD45G and blot for HA-MAGEH1, and the reciprocal IP of HA-MAGEH1 with blot for GADD45G; Protein G agarose; control IgG"}, "[2]": {"target": "T2, HA-MAGEH1 overexpressed from Ad-HA-MAGEH1 in HRE cells (UniProt Q9H213)", "T2 sequence": "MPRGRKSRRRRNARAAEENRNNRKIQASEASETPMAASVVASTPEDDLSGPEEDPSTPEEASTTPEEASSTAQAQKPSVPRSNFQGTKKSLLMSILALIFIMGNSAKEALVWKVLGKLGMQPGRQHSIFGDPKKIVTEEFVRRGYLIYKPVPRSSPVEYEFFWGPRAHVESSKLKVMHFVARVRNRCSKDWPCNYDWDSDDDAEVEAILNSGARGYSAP", "assay": "co-IP; lysates of HRE cells co-infected with Ad-GADD45G and Ad-HA-MAGEH1 (MOI 250), with or without 25 ug/ml CsA; IP with anti-GADD45G and blot for HA-MAGEH1, and the reciprocal IP of HA-MAGEH1 with blot for GADD45G; Protein G agarose; control IgG"}}, "note": "Results are given in words; binding and its absence hold for the method and conditions named. In cells and extracts the contact can be indirect. Some binding calls cover weakened binding; strength is not graded here. Where a sequence is shown, tags or fusion partners need not be part of it."}
{"binder": "HA-MAGEH1 overexpressed from Ad-HA-MAGEH1 in HRE cells (protein, UniProt Q9H213 1-219) MPRGRKSRRRRNARAAEENRNNRKIQASEASETPMAASVVASTPEDDLSGPEEDPSTPEEASTTPEEASSTAQAQKPSVPRSNFQGTKKSLLMSILALIFIMGNSAKEALVWKVLGKLGMQPGRQHSIFGDPKKIVTEEFVRRGYLIYKPVPRSSPVEYEFFWGPRAHVESSKLKVMHFVARVRNRCSKDWPCNYDWDSDDDAEVEAILNSGARGYSAP", "values": [{"measurement": "binding", "setting": "[1]", "result": "binds"}]}
{"binder": "GADD45G overexpressed from Ad-GADD45G in HRE cells (protein, UniProt O95257 1-159) MTLEEVRGQDTVPESTARMQGAGKALHELLLSAQRQGCLTAGVYESAKVLNVDPDNVTFCVLAAGEEDEGDIALQIHFTLIQAFCCENDIDIVRVGDVQRLAAIVGAGEEAGAPGDLHCILISNPNEDAWKDPALEKLSLFCEESRSVNDWVPSITLPE", "values": [{"measurement": "binding", "setting": "[2]", "result": "binds"}]}
